Results are given in words; binding and its absence hold for the method and conditions named. Some entries that bind do so weakly or less than the wild type.
Legend:
[1] = molecular target: full-length Tie2-GFP V685D/V687D/K700E (human) (UniProt Q02763); assay: SEC; fluorescence size-exclusion chromatography (FSEC) of full-length Tie2-GFP solubilised from HEK293F membranes by LMNG-CHS
[2] = molecular target: human Tie2 extracellular domain (hTie2 ECD) (human) (UniProt Q02763); assay: SEC-MALS; Superdex 200 Increase 10/300 GL, 0.5 ml/min, room temperature, 20 mM HEPES pH 7.5, 200 mM NaCl (legend: PBS); 3 mg/ml hTie2 Fn2–3, 1 mg/ml all others; both purified
[3] = molecular target: full-length Tie2-GFP D682C/N691C (human) (UniProt Q02763); assay: SEC; fluorescence size-exclusion chromatography (FSEC) of full-length Tie2-GFP solubilised from HEK293F membranes by LMNG-CHS

The chains behind the UniProt entries cited, without tags or fusion partners. Where a name states a change or a piece, a line headed by the entry shows the natural chain unless it says otherwise. A line that says so, or that is headed by a name, gives the form on record, which may keep a tag or linker. Residues count along the entry.
human Tie2 extracellular domain (hTie2 ECD) (Q02763, residues 23-735): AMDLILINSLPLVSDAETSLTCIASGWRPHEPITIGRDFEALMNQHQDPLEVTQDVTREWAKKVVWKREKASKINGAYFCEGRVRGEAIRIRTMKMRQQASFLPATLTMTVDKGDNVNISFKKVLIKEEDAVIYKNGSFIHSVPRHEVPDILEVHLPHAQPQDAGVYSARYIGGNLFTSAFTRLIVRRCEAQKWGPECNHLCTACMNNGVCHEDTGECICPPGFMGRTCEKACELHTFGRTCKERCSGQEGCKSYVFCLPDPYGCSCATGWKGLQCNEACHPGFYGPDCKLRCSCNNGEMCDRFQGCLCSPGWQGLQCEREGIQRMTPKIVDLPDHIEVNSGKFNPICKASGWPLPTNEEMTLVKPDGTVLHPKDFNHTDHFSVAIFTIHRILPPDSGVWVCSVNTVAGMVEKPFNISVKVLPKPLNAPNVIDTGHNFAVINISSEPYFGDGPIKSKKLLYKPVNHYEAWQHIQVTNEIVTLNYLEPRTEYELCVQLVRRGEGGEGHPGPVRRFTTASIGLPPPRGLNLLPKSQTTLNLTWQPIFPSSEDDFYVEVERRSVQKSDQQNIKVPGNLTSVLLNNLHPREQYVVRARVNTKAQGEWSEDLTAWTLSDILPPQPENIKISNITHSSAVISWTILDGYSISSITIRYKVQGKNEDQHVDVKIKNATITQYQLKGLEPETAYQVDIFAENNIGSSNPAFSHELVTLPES
full-length Tie2-GFP V685D/V687D/K700E (Q02763, form named): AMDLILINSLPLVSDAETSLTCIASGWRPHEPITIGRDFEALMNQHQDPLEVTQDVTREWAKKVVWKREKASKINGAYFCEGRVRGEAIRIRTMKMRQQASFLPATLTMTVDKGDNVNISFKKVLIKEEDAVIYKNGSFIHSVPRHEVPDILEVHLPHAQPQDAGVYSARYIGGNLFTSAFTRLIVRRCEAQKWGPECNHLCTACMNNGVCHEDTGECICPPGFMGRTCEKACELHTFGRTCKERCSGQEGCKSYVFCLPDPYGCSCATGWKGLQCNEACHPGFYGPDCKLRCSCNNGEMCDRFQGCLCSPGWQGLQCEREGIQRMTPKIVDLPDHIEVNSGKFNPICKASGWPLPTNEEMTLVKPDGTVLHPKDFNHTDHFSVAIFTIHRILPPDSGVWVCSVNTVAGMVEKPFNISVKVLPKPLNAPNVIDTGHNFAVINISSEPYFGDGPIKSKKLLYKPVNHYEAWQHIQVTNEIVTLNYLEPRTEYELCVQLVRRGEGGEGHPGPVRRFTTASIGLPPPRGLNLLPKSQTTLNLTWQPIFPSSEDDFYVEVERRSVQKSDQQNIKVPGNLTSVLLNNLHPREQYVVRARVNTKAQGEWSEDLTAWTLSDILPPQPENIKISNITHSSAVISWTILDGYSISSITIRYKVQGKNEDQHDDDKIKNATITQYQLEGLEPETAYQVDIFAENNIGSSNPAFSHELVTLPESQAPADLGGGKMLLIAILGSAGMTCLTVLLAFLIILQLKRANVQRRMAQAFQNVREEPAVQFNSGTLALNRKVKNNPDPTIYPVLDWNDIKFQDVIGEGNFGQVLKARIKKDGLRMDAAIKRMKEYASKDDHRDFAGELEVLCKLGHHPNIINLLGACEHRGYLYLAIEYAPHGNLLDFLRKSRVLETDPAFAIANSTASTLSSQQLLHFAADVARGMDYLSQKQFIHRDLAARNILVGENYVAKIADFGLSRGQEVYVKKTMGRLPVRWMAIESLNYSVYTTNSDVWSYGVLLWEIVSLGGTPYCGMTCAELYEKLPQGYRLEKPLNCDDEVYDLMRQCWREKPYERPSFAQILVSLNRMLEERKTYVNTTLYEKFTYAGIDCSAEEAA
full-length Tie2-GFP D682C/N691C (Q02763, form named): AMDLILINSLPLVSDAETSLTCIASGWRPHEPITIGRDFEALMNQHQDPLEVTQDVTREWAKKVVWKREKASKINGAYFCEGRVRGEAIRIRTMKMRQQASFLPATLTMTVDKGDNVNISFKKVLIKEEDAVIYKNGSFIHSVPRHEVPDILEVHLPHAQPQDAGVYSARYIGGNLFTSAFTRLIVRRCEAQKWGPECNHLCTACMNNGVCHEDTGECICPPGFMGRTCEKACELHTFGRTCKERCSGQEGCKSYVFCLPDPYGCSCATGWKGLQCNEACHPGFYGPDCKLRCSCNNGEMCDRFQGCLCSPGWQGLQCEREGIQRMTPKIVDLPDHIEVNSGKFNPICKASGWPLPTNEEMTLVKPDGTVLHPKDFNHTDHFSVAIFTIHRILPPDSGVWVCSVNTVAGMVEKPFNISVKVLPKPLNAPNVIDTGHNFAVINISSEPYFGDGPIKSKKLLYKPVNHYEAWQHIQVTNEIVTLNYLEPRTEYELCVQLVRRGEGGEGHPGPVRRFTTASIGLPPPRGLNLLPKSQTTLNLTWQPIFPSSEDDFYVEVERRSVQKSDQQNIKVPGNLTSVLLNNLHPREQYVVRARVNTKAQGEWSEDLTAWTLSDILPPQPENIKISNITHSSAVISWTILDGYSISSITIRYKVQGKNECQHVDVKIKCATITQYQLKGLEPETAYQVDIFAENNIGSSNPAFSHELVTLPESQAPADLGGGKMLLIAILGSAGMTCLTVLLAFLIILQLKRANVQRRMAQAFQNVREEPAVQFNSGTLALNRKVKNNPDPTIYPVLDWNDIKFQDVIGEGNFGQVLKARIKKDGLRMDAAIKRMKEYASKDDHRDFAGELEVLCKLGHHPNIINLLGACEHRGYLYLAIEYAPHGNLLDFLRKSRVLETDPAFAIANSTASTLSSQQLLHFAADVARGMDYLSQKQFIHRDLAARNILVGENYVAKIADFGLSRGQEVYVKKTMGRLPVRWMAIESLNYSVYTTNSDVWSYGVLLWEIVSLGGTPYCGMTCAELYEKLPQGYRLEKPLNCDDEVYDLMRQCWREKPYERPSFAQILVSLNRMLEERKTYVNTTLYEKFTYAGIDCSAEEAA

## full-length Tie2-GFP V685D/V687D/K700E (from UniProt Q02763 23-1124) (receptor)
[1]
  binding: no binding

## human Tie2 extracellular domain (hTie2 ECD) (from UniProt Q02763 23-735) (domain or fragment)
[2]
  binding: no binding (tested: 1 mg/ml)

## full-length Tie2-GFP D682C/N691C (from UniProt Q02763 23-1124) (receptor)
[3]
  binding: binds
